This assay deals with T1, GST-tagged Tiam1 (720-841), Ras-binding domain (UniProt Q60610).
T1 sequence: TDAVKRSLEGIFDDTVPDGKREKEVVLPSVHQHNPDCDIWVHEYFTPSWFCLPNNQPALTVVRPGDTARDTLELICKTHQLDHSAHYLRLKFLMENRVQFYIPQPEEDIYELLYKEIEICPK
The experiment in a line: pull-down; GST-Tiam1 (720-841) on lysates of PC12 cells treated or not with NGF for different times; immunoblot with anti-Ras; only the target purified. On the technique in general: Immunoblotting shows a protein as a band on a membrane.

The source of these data is paper PMC2841637.

Results are given in words; binding and its absence hold for the method and conditions named. In cells and extracts the contact can be indirect. Binding can be weak; no strength is given. Tags and fused reporters may be left off the sequences shown.

In the case of “Ras, endogenous (rat (endogenous in PC12))”, the binding entry was “binds”.
